Measured values taken from PMC9742362.
Results are given in words; binding and its absence hold for the method and conditions named. In cells and extracts the contact can be indirect. These calls come from enrichment with a bait or labelling near it, and not all partners need be listed. For part of these data: Where a sequence is shown, tags or fusion partners need not be part of it.

Protein sequences, listed by entry. Tags and fused reporters are not part of them.
UniProt Q9UJ04: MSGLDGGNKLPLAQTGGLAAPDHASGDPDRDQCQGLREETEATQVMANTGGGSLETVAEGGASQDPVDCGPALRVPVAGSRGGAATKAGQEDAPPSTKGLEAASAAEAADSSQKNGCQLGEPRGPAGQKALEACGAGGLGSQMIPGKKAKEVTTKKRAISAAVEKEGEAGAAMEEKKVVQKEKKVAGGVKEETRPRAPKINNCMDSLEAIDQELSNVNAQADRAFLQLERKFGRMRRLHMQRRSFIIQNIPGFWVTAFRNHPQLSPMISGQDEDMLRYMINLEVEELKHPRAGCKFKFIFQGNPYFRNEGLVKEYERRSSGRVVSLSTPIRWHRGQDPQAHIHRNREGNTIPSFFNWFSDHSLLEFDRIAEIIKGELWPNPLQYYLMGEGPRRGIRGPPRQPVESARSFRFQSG
UniProt P36402: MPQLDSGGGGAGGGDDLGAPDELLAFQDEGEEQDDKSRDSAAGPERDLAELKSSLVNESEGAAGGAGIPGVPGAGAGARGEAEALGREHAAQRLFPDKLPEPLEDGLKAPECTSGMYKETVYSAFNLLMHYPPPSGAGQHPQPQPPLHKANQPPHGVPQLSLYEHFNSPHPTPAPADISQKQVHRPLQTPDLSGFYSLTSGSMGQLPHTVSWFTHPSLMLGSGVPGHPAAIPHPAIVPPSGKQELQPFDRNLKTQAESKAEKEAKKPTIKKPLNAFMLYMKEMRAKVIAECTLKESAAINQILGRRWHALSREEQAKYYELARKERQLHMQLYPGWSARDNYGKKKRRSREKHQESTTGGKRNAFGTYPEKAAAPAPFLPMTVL
UniProt Q9NQB0: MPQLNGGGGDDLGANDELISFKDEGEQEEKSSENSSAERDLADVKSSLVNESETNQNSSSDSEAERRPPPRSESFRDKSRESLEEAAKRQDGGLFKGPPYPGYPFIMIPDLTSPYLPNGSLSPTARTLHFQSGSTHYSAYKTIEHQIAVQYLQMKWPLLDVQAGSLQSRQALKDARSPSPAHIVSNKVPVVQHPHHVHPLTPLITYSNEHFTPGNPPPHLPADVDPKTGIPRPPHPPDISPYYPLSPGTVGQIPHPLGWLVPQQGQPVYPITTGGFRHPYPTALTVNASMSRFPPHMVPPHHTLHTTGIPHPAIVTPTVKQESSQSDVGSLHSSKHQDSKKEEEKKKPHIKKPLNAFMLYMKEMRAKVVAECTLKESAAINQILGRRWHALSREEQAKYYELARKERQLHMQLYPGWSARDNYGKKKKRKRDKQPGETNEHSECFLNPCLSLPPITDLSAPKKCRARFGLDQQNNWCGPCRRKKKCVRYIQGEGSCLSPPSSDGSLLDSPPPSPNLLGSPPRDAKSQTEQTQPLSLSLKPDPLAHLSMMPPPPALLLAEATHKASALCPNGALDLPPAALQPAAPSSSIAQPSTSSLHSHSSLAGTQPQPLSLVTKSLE

Legend:
Assay in all cases: affinity purification with mass spectrometry; differentiated HepaRG cells transiently transfected with IRES-TSPYL1, 2 or 4 plasmids for 48 h; immunoprecipitation with Flag antibody, normal mouse IgG as negative control; eluted in 2X Laemmli buffer, SDS-PAGE, gel slices analysed by mass spectrometry
[1] = biological target: T1, 3XFLAG-TSPYL2 (testis-specific Y-encoded-like protein 2) (human) (UniProt Q9H2G4)
T1 sequence: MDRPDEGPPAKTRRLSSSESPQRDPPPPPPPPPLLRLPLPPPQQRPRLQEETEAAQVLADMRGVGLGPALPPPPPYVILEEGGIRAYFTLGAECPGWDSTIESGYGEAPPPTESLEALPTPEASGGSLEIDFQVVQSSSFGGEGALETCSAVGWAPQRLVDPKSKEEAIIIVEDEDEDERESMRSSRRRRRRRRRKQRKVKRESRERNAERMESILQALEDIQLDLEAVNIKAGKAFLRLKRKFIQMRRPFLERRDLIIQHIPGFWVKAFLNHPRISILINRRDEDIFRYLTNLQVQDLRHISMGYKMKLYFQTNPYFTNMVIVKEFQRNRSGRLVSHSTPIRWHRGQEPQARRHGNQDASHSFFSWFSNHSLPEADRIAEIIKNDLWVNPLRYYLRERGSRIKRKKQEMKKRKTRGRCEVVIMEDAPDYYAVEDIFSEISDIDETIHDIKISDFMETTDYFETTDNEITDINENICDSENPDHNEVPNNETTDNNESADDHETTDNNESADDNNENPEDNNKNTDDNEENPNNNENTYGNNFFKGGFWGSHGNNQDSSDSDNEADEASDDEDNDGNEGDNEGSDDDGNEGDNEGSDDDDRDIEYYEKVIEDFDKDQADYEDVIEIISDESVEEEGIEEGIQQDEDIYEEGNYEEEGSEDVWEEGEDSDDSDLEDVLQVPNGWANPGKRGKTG

[2] = biological target: 3XFLAG-TSPYL1 (testis-specific Y-encoded-like protein 1) (human) (UniProt Q9H0U9)
[3] = biological target: 3XFLAG-TSPYL4 (testis-specific Y-encoded-like protein 4) (human) (UniProt Q9UJ04)

Measured: binding

TCF7 (from UniProt P36402 1-384)
binds: [1] | [2] | [3]

TCF7L2 (endogenous) (from UniProt Q9NQB0 1-619)
binds: [1] | [2] | [3]
